Experimental data as given in patent US10201583B2, “Antioxidant dietary supplement and related method” (priority 2012, dated 2019).
Some of these results come from one statement about several compounds together.

Tested on: heme oxygenase-1 (HMOX-1) gene expression
Assay: HMOX-1 gene expression by RT-qPCR in MCF-7 cells
Type: cell-based, human
Conditions: MCF-7, overnight; turmeric 1.3 μg/ml, quercetin 3.9 μg/ml, rosemary 6.5 μg/ml, TQR Blend 15 μg/ml (1:3:5)

Question: Which “fold increase in HMOX-1 expression” value does the source give for `O=c1c(O)c(-c2ccc(O)c(O)c2)oc2cc(O)cc(O)c12` [quercetin] here?
Answer: Its value is “greater than 3 fold”.
